In PubChem BioAssay AID445 (National Center for Advancing Translational Sciences (NCATS), 2006):
The other results are listed elsewhere or left out. The main result of the screen is listed elsewhere. These columns were measured beside it and carry no call. Most of these compounds were active or inconclusive in the main read-out, so they are no random draw. The note in brackets gives the kind of curve behind each potency; many fits are weak.

Assay: IkB Signaling
Settings: ABC-DLBCL IkBa-CBG/CBR dual luciferase ratio (green luciferase fused to IkBa over red control in OCI-Ly3 lymphoma cells), 4 h
Method in brief: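 In this assay, an IκBα–CBG68 fusion accumulates when IKK-driven degradation is blocked; native CBR normalizes for cell number. OCI-Ly3 cells were treated 4 h with compound and doxycycline, then green and red light read after Chroma-Glo addition.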

[1] = measured here: control luc red channel unless noted
[2] = measured here: IkB-luc green channel
[3] = measured here: control luc red channel

Cc1cc(C(=O)OCC(=O)NCc2ccco2)c(C)n1-c1ccc(F)cc1
AC50 [1]: 12.6 µM [rising, partial curve] [measured here: IkB-luc green channel]

O=C(NCC(c1ccc2c(c1)OCO2)N1CCN(c2ccccc2)CC1)C(=O)Nc1ccccc1F (configuration not stated)
AC50 [1]: 12.6 µM [falling, partial curve]

CCOc1ccc(NC(=O)CC2C(=O)N(c3ccc(OC)cc3)C(=O)N2CCC2=CCCCC2)cc1 (configuration not stated)
AC50 [1]: 31.6 µM [falling, single point]

CC(=O)Nc1cccc(-c2nnc(SCC(=O)c3cc([N+](=O)[O-])ccc3Cl)o2)c1
AC50 [2]: 31.6 µM [rising, partial curve]
AC50 [3]: 15.8 µM [falling, partial curve]

COc1cccc(N2CCN(C(=O)c3ccc4nc(N5CCC(C)CC5)sc4c3)CC2)c1
AC50 [1]: 1.58 µM [falling, full curve]

CCOC(=O)c1cnc2ccc(C(=O)OC)cc2c1Nc1ccc(OCc2ccccc2Cl)cc1
AC50 [1]: 39.8 µM [falling, single point]

OCCn1c(CSc2nnc(-c3ccco3)n2-c2ccccc2)nc2ccc(Cl)cc21
AC50 [1]: 3.98 µM [falling, partial curve, poor fit]

O=C(NCc1cccc(Br)c1)C1CCCCN1S(=O)(=O)c1ccc(F)cc1 (configuration not stated)
AC50 [1]: 31.6 µM [falling, single point]

COc1cccc(NC(=O)C(C)n2c(=O)cc(C(F)(F)F)c3c(C)nn(C)c32)c1 (configuration not stated)
AC50 [1]: 7.94 µM [falling, partial curve]

CCc1ccc(CNC(=O)CN2C(=O)C3CCCCN3c3ccc(C(=O)N4CCCC4)cc32)cc1 (configuration not stated)
AC50 [1]: 20 µM [falling, partial curve, poor fit]

COc1ccc(N2CSC3=C(C#N)C(c4ccc(OC)c(OC)c4)CC(=O)N3C2)c(OC)c1 (configuration not stated)
AC50 [1]: 25.1 µM [rising, partial curve] [measured here: IkB-luc green channel]

CC(C)Oc1ccc(CNC(=O)C(C)n2ccc3cc(S(=O)(=O)N4CCCCCC4)ccc32)cc1 (configuration not stated)
AC50 [1]: 12.6 µM [falling, partial curve]

CCOc1ccccc1NC(=O)Cn1c(=O)nc(-c2ccccc2F)c2cc(Cl)ccc21
AC50 [1]: 25.1 µM [falling, single point]

Cc1ccc(-c2csc(N3CCC(NS(=O)(=O)c4ccc5c(c4)OCCO5)CC3)n2)cc1
AC50 [1]: 5.01 µM [falling, partial curve]

COc1ccc(OCc2nc3ccccc3n2Cc2ccc(C(C)(C)C)cc2)cc1
AC50 [1]: 20 µM [falling, partial curve]

CCN(CC)C(=O)Cn1c(SCC(=O)Nc2ccc(F)cc2)nc2ccccc21
AC50 [1]: 15.8 µM [falling, partial curve]

Cc1ccc(-c2nnc(Nc3ccc(OCC(N)=O)cc3)c3ccccc23)cc1S(=O)(=O)NCC1CCCO1 (configuration not stated)
AC50 [1]: 25.1 µM [falling, partial curve]

O=C(CCn1cnc2onc(-c3ccc(F)cc3)c2c1=O)Nc1cccc(C(F)(F)F)c1
AC50 [1]: 25.1 µM [falling, single point]

Cc1ccc(-n2c(=O)c3c(cnn3C)n(CC(=O)Nc3cccc(Cl)c3)c2=O)cc1
AC50 [1]: 20 µM [falling, partial curve]

Cc1ccc(CNC(=O)C2CCN(C(=O)N3CC(C)Oc4ccc(Cl)cc43)CC2)cc1 (configuration not stated)
AC50 [1]: 20 µM [falling, single point]

Cc1ccc(CSc2nc3ccccc3c3nc(CCn4c(C)nc5ccccc54)nn23)cc1
AC50 [1]: 6.31 µM [rising, partial curve, poor fit]

CCOc1ccc(NC(=O)c2ccc3c(=O)n4c(nc3c2)CCCCC4)cc1
AC50 [1]: 20 µM [falling, single point]

Cc1ccc(C)c(N2CCN(CCCNC(=O)c3cnn(-c4cccc(Cl)c4)c3C3CCN(C(=O)OC(C)(C)C)CC3)CC2)c1
AC50 [1]: 12.6 µM [falling, partial curve]

CC(=O)Oc1c(S(=O)(=O)c2ccccc2)c(C)nn1C(C)(C)C
AC50 [2]: 39.8 µM [falling, single point]
AC50 [3]: 10 µM [falling, partial curve]

COc1cccc(NS(=O)(=O)c2ccc3[nH]cc(C(=O)NC(C)c4ccccc4)c(=O)c3c2)c1 (configuration not stated)
AC50 [1]: 12.6 µM [falling, partial curve]

Cc1cccc(NC(=O)c2cn(-c3ccccc3)nc2-c2ccccc2)c1C
AC50 [1]: 25.1 µM [falling, partial curve]

Cc1ccccc1CN1CCCN(CC(=O)Nc2ccc(F)cc2)S1(=O)=O
AC50 [1]: 12.6 µM [falling, partial curve]

CCOC(=O)c1c(C)oc2nc(C)nc(NCCc3ccc(Cl)cc3)c12
AC50 [1]: 25.1 µM [falling, partial curve]

CC(C)(C)NC(=O)c1cccc(NC(=O)c2ccc(NC(=O)c3ccco3)cc2)c1
AC50 [1]: 15.8 µM [falling, partial curve]

Cc1ccc(/C=C/C(=O)Nc2ccc3nc(N4CCC(C)CC4)cc(C)c3c2)cc1
AC50 [1]: 15.8 µM [falling, partial curve]

Cn1c(=O)oc2cc(S(=O)(=O)NC(Cc3ccccc3)C(=O)Nc3ccc(F)c(Cl)c3)ccc21 (configuration not stated)
AC50 [1]: 6.31 µM [falling, full curve]

c1ccc(-c2noc(CSc3nnnn3-c3ccccc3)n2)cc1
AC50 [1]: 25.1 µM [falling, partial curve]

CC1CCc2c(sc3ncnc(N4CCOCC4)c23)C1 (configuration not stated)
AC50 [1]: 12.6 µM [falling, partial curve]

CC(OC(=O)c1ccccc1NCc1ccco1)C(=O)Nc1ncc(Cl)cc1Cl (configuration not stated)
AC50 [1]: 31.6 µM [falling, partial curve]

Cc1ccc(CNC(=O)c2ccc3c(c2)c(C)c(C)n3Cc2ccc(Cl)cc2)o1
AC50 [1]: 25.1 µM [falling, partial curve]

Cc1c(-c2ccccc2)c(=O)oc2c(CN3CCOCC3)c(O)ccc12
AC50 [1]: 12.6 µM [rising, partial curve]

Cc1ccc(C2C=C(c3ccccc3)Nc3nc(NS(C)(=O)=O)nn32)cc1 (configuration not stated)
AC50 [1]: 7.94 µM [rising, single point]

COc1ccc(CCNC(=O)c2ccc3c(c2)N=C(C)c2ccccc2S3)cc1OC
AC50 [1]: 39.8 µM [falling, single point]

CNS(=O)(=O)c1cccc(C(=O)OCC(=O)c2cc(C)n(-c3ccc4c(c3)OCO4)c2C)c1
AC50 [1]: 15.8 µM [falling, partial curve]

COc1ccc(NC(=O)NC(C)c2c(-n3cccc3)sc(C)c2C)cc1OC (configuration not stated)
AC50 [1]: 31.6 µM [falling, single point]

CCOc1cccc2sc(NC(=O)c3ccc(S(=O)(=O)N4CCCCC4C)cc3)nc12 (configuration not stated)
AC50 [1]: 0.316 µM [falling, full curve]

CCOC(=O)c1c(C)[nH]c(C)c1S(=O)(=O)N1CCN(c2cc(Cl)ccc2C)CC1
AC50 [1]: 25.1 µM [falling, single point]

Clc1ccccc1Cn1c(-c2cccs2)nc2ccccc21
AC50 [1]: 6.31 µM [rising, single point]

Cc1nnc(NC(=O)c2nc(SC(C)C)ncc2Cl)s1
AC50 [1]: 15.8 µM [falling, partial curve]

CCc1cccc(NC(=O)c2ccc3c(c2)N(Cc2cccc(Cl)c2)C(=O)c2ccccc2S3=O)c1 (configuration not stated)
AC50 [1]: 15.8 µM [falling, single point]

Cc1ccc(-c2cc(C(=O)NCc3ccc4c(c3)OCO4)[nH]n2)c(O)c1C
AC50 [1]: 39.8 µM [rising, single point] [measured here: IkB-luc green channel]

CC(=O)NCCOc1ccc(C(=O)O)cc1
AC50 [1]: 15.8 µM [falling, partial curve]

CC(C)(C)n1nnnc1C(c1ccccc1F)N(Cc1ccco1)CC1CCCO1 (configuration not stated)
AC50 [1]: 25.1 µM [falling, single point]

CC(C)C(=O)Nc1cccc2nsnc12
AC50 [1]: 20 µM [falling, partial curve]

Cc1cccc(N2CCN(C(=O)CCS(=O)(=O)c3ccc4c(c3)CC(=O)N4C)CC2C)c1 (configuration not stated)
AC50 [1]: 10 µM [falling, partial curve, poor fit]

COC(=O)Nc1nc2ccc(SC(C)C)cc2[nH]1
AC50 [2]: 2.51 µM [rising, full curve]
AC50 [3]: 2 µM [rising, full curve]

CC(=O)N1CCN(c2csc3ccc(Cl)cc3c2=O)CC1
AC50 [1]: 0.158 µM [rising, full curve]

Cc1cccc(C(c2sc3nc(-c4ccco4)nn3c2O)N2CCOCC2)c1 (configuration not stated)
AC50 [1]: 20 µM [rising, single point]

CCNc1nc2c(c(=O)n(C)c(=O)n2C)n1Cc1ccc(F)cc1
AC50 [1]: 1 µM [falling, full curve, poor fit]

Cc1ccc(CSC2=NC(C)(C)Nc3ccccc32)c(C)c1
AC50 [1]: 7.94 µM [falling, full curve]

COc1ccc(-c2csc3ncnc(Nc4ccccc4)c23)cc1
AC50 [1]: 10 µM [falling, partial curve]

COC(=O)C1=C(C)NC(C)=C(C(=O)OCCCN2CCC(c3ccccc3)(c3ccccc3)CC2)[C@H]1c1cccc([N+](=O)[O-])c1
AC50 [1]: 31.6 µM [falling, partial curve]

Fc1cccc(CN2CCc3nc(Nc4ccc5c(c4)OCCO5)ncc3C2)c1F
AC50 [1]: 39.8 µM [falling, partial curve]

COc1ccc(-c2noc(N3CCC(C(=O)N4CCN(c5cccc(OC)c5)CC4)CC3)n2)cc1
AC50 [1]: 15.8 µM [falling, partial curve]
